Shown are survivors of the treated group in tumour-free mice. Counts of survivors are from the toxicity check (mostly the fifth day) where no day follows; animals may have died later. Schedules are NCI's codes, read here as Q, the interval in days (D) or hours (H), X, the number of doses. Some molecules as drawn cover several salts, stereoisomers or complexes of the source; a dose is that of the sample tested. Signs of the kind (2×) say how often a value occurs here. Some entries were tested several times; the values are given in rising order.
Tested on: CD2F1 mice, nontumored, toxicity/survival
Assay: NCI In Vivo Anticancer Drug Screen. Data for tumor model Nontumored Animals (Toxicity Test) in CD2F1 (CDF1) mice

**Q.** What does the source list for `COc1cc(NS(C)(=O)=O)ccc1Nc1c2ccccc2nc2ccccc12`?
**A.** survivor count (dose: 0.06 mg/kg/injection, schedule: Q03HX024 (ip), vehicle: other): 8 of 8 (2×); survivor count (dose: 0.12 mg/kg/injection, schedule: Q03HX024 (ip), vehicle: other): 8 of 8 (2×); survivor count (dose: 0.25 mg/kg/injection, schedule: Q01DX009 (ip), vehicle: other): 8 of 8 (2×); survivor count (dose: 0.25 mg/kg/injection, schedule: Q01DX009 (sc), vehicle: other): 8 of 8 (2×); survivor count (dose: 0.25 mg/kg/injection, schedule: Q03HX008 (ip), vehicle: other): 7 of 8 (2×); survivor count (dose: 0.25 mg/kg/injection, schedule: Q03HX016 (ip), vehicle: other): 8 of 8 (2×); survivor count (dose: 0.25 mg/kg/injection, schedule: Q03HX024 (ip), vehicle: other): 8 of 8 (2×); survivor count (dose: 0.25 mg/kg/injection, schedule: Q03HX024 (ip), vehicle: saline): 8 of 8; survivor count (dose: 0.5 mg/kg/injection, schedule: Q01DX009 (ip), vehicle: other): 8 of 8 (2×); survivor count (dose: 0.5 mg/kg/injection, schedule: Q01DX009 (sc), vehicle: other): 8 of 8 (2×); survivor count (dose: 0.5 mg/kg/injection, schedule: Q03HX008 (ip), vehicle: other): 8 of 8 (2×); survivor count (dose: 0.5 mg/kg/injection, schedule: Q03HX016 (ip), vehicle: other): 8 of 8 (2×); survivor count (dose: 0.5 mg/kg/injection, schedule: Q03HX016 (ip), vehicle: saline): 8 of 8; survivor count (dose: 0.5 mg/kg/injection, schedule: Q03HX024 (ip), vehicle: other): 8 of 8 (2×); survivor count (dose: 0.5 mg/kg/injection, schedule: Q03HX024 (ip), vehicle: saline): 8 of 8; survivor count (dose: 0.5 mg/kg/injection, schedule: Q04DX003 (ip), vehicle: other): 8 of 8 (2×); survivor count (dose: 0.75 mg/kg/injection, schedule: Q01DX009 (ip), vehicle: other): 4 of 4; survivor count (dose: 1.0 mg/kg/injection, schedule: Q01DX009 (ip), vehicle: other): 8 of 8 (2×); survivor count (dose: 1.0 mg/kg/injection, schedule: Q01DX009 (ip), vehicle: saline): 8 of 8 (2×); survivor count (dose: 1.0 mg/kg/injection, schedule: Q01DX009 (oral), vehicle: other): 8 of 8 (2×); survivor count (dose: 1.0 mg/kg/injection, schedule: Q01DX009 (sc), vehicle: other): 8 of 8 (2×); survivor count (dose: 1.0 mg/kg/injection, schedule: Q01DX009 (sc), vehicle: saline): 8 of 8 (2×); survivor count (dose: 1.0 mg/kg/injection, schedule: Q03HX008 (ip), vehicle: other): 8 of 8 (2×); survivor count (dose: 1.0 mg/kg/injection, schedule: Q03HX008 (ip), vehicle: saline): 8 of 8; survivor count (dose: 1.0 mg/kg/injection, schedule: Q03HX016 (ip), vehicle: other): 8 of 8 (2×); survivor count (dose: 1.0 mg/kg/injection, schedule: Q03HX016 (ip), vehicle: saline): 8 of 8; survivor count (dose: 1.0 mg/kg/injection, schedule: Q03HX024 (ip), vehicle: other): 8 of 8 (2×); survivor count (dose: 1.0 mg/kg/injection, schedule: Q03HX024 (ip), vehicle: saline): 8 of 8 (2×); survivor count (dose: 1.0 mg/kg/injection, schedule: Q04DX003 (ip), vehicle: other): 5 of 5 and 8 of 8 (2×); survivor count (dose: 1.5 mg/kg/injection, schedule: Q01DX009 (ip), vehicle: other): 2 of 3; survivor count (dose: 2.0 mg/kg/injection, schedule: Q01DX001 (ip), vehicle: other): 8 of 8 (2×); survivor count (dose: 2.0 mg/kg/injection, schedule: Q01DX001 (sc), vehicle: other): 8 of 8 (2×); survivor count (dose: 2.0 mg/kg/injection, schedule: Q01DX009 (ip), vehicle: other): 8 of 8 (2×); survivor count (dose: 2.0 mg/kg/injection, schedule: Q01DX009 (ip), vehicle: saline): 8 of 8 (2×); survivor count (dose: 2.0 mg/kg/injection, schedule: Q01DX009 (oral), vehicle: other): 8 of 8 (2×); survivor count (dose: 2.0 mg/kg/injection, schedule: Q01DX009 (sc), vehicle: other): 8 of 8 (2×); survivor count (dose: 2.0 mg/kg/injection, schedule: Q01DX009 (sc), vehicle: saline): 8 of 8 (2×); survivor count (dose: 2.0 mg/kg/injection, schedule: Q03HX008 (ip), vehicle: other): 8 of 8 (2×); survivor count (dose: 2.0 mg/kg/injection, schedule: Q03HX008 (ip), vehicle: saline): 8 of 8 (2×); survivor count (dose: 2.0 mg/kg/injection, schedule: Q03HX016 (ip), vehicle: other): 8 of 8 (2×); survivor count (dose: 2.0 mg/kg/injection, schedule: Q03HX016 (ip), vehicle: saline): 8 of 8 (2×); survivor count (dose: 2.0 mg/kg/injection, schedule: Q03HX024 (ip), vehicle: other): 8 of 8 (2×); survivor count (dose: 2.0 mg/kg/injection, schedule: Q03HX024 (ip), vehicle: saline): 8 of 8 (2×); survivor count (dose: 2.0 mg/kg/injection, schedule: Q04DX003 (ip), vehicle: other): 4 of 4, 5 of 5, 8 of 8 (2×); survivor count (dose: 2.0 mg/kg/injection, schedule: Q04DX003 (ip), vehicle: saline): 8 of 8; survivor count (dose: 2.0 mg/kg/injection, schedule: Q08DX002 (ip), vehicle: other): 8 of 8 (2×); survivor count (dose: 3.0 mg/kg/injection, schedule: Q01DX009 (ip), vehicle: other): 4 of 4; survivor count (dose: 4.0 mg/kg/injection, schedule: Q01DX001 (ip), vehicle: other): 8 of 8 (2×); survivor count (dose: 4.0 mg/kg/injection, schedule: Q01DX001 (sc), vehicle: other): 8 of 8 (2×); survivor count (dose: 4.0 mg/kg/injection, schedule: Q01DX009 (ip), vehicle: other): 8 of 8 (2×); survivor count (dose: 4.0 mg/kg/injection, schedule: Q01DX009 (ip), vehicle: saline): 8 of 8 (2×); survivor count (dose: 4.0 mg/kg/injection, schedule: Q01DX009 (oral), vehicle: other): 8 of 8 (2×); survivor count (dose: 4.0 mg/kg/injection, schedule: Q01DX009 (oral), vehicle: saline): 8 of 8 (2×); survivor count (dose: 4.0 mg/kg/injection, schedule: Q01DX009 (sc), vehicle: other): 8 of 8 (2×); survivor count (dose: 4.0 mg/kg/injection, schedule: Q01DX009 (sc), vehicle: saline): 8 of 8 (2×); survivor count (dose: 4.0 mg/kg/injection, schedule: Q03HX008 (ip), vehicle: other): 6 of 8 (2×); survivor count (dose: 4.0 mg/kg/injection, schedule: Q03HX008 (ip), vehicle: saline): 8 of 8 (2×); survivor count (dose: 4.0 mg/kg/injection, schedule: Q03HX016 (ip), vehicle: other): 7 of 8 (2×); survivor count (dose: 4.0 mg/kg/injection, schedule: Q03HX016 (ip), vehicle: saline): 8 of 8 (2×); survivor count (dose: 4.0 mg/kg/injection, schedule: Q03HX024 (ip), vehicle: other): 7 of 8 (2×); survivor count (dose: 4.0 mg/kg/injection, schedule: Q03HX024 (ip), vehicle: saline): 8 of 8 (2×); survivor count (dose: 4.0 mg/kg/injection, schedule: Q04DX003 (ip), vehicle: other): 4 of 4, 5 of 5, 8 of 8 (2×); survivor count (dose: 4.0 mg/kg/injection, schedule: Q04DX003 (ip), vehicle: saline): 8 of 8; survivor count (dose: 4.0 mg/kg/injection, schedule: Q08DX002 (ip), vehicle: other): 8 of 8 (2×); survivor count (dose: 4.0 mg/kg/injection, schedule: Q08DX002 (ip), vehicle: saline): 8 of 8; survivor count (dose: 6.0 mg/kg/injection, schedule: Q01DX009 (ip), vehicle: other): 0 of 2; survivor count (dose: 8.0 mg/kg/injection, schedule: Q01DX001 (ip), vehicle: other): 8 of 8 (2×); survivor count (dose: 8.0 mg/kg/injection, schedule: Q01DX001 (ip), vehicle: saline): 8 of 8; survivor count (dose: 8.0 mg/kg/injection, schedule: Q01DX001 (oral), vehicle: other): 8 of 8 (2×); survivor count (dose: 8.0 mg/kg/injection, schedule: Q01DX001 (sc), vehicle: other): 8 of 8 (2×); survivor count (dose: 8.0 mg/kg/injection, schedule: Q01DX001 (sc), vehicle: saline): 8 of 8; survivor count (dose: 8.0 mg/kg/injection, schedule: Q01DX009 (ip), vehicle: other): 8 of 8 (2×); survivor count (dose: 8.0 mg/kg/injection, schedule: Q01DX009 (ip), vehicle: saline): 8 of 8 (2×); survivor count (dose: 8.0 mg/kg/injection, schedule: Q01DX009 (oral), vehicle: other): 8 of 8 (2×)

Source: PubChem BioAssay AID188 (DTP/NCI, 2004)
